Measured values reported in patent publication US20260167673A1, “NOVEL POLYPEPTIDE, POLYPEPTIDE DERIVATIVE AND USE THEREOF” (NANJING ANJI BIOTECHNOLOGY CO., LTD., priority 2023, published 2026).
Substitutions are numbered along the chain they refer to. No constants are given. Whether binding was seen depends on the method and setting. Some binding calls cover weakened binding; strength is not graded here.

T1: AQP2 protein (UniProt P41181 1-271, limits assumed)
T1 construct: also called protein AQP2
T1 sequence (looked up): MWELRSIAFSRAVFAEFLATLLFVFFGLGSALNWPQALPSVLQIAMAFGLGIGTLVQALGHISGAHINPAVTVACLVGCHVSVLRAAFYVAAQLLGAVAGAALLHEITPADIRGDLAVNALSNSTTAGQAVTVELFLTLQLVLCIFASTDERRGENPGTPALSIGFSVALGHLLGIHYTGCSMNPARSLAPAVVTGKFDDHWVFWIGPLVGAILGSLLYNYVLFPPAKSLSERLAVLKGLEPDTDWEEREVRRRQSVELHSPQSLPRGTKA

B1: HMMW-8A (peptide)
peptide: MERAGVPAFSPRRSSVEAKMQSTSCSVRKSSTVTAWPAVVLLLSWGQRRGG
notes: Alanine mutant of HMMW at position 8; solid-phase synthesis
B2: HMMW-49A (peptide)
peptide: B1 peptide with A8G, R49A
notes: Alanine mutant of HMMW at position 49; solid-phase synthesis
B3: HMMW-48A (peptide)
peptide: B1 peptide with A8G, R48A
notes: Alanine mutant of HMMW at position 48; solid-phase synthesis

What follows are binders tested against T1, AQP2 protein (assay: microscale thermophoresis (MST)).

| binding | Binder |
| --- | --- |
| binds | B1 |
| binds | B2 |
| binds | B3 |
